# Data as given in the supplement of paper PMC8728848.
# This is one part of the list.
# B1: SabA (Helicobacter pylori) (protein)
# chain: MGSSHHHHHHSSGLVPRGSHMENLYFQGEDNGFFVSAGYQIGEAVQMVKNTGELKNLNEKYEQLSQYLNQVASLKQSIQNANNIELVNSSLNYLKSFTNNNYNSTTQSPIFNAVQAVITSVLGFWSLYAGNYFTFFVGKKVGDSGQPASVQGNPPFKTIIENCSGIENCAMDQTTYDKMKKLAEDLQAAQTNSATKGNNLCALSGCAATDSTSNPPNSTVSNALNLAQQLMDLIANTKTAMMWKNIVISGVSNTSGAITSTNYPTQYAVFNNIKAMIPILQQAVTLSQSNHTLSASLQAQATGSQTNPKFAKDIYTFAQNQKQVISYAQDIFNLFNSIPAEQYKYLEKAYLKIPNAGSTPTNPYRQVVNLNQEVQTIKNNVSYYGNRVDAALSVARDVYNLKSNQAEIVTAYNDAKTLSEEISKLPHNQVNTKDIVTLPYDKNAPAAGQSNYQINPEQQSNLNQALAAMSNNPFKKVGMISSQNNNGA
# Columns and labels:
# Test in all cases: glycan array binding signal (z-score within array); higher = stronger binding
# Conditions in all cases: glycan notation: IUPAC condensed, linker removed
# [1] = molecular target: Gal(b1-4)GlcNAc(b1-2)Man(a1-3)[Gal(b1-4)GlcNAc(b1-2)Man(a1-6)]Man(b1-4)GlcNAc(b1-4)GlcNAc
# How it was run: (§1)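 From the Consortium for Functional Glycomics database, 3228 arrays were curated, keeping only those whose protein sequence was available. Binding is given as a within-array Z-score averaged across arrays sharing a protein sequence and across linkers. Negative Z-scores can be read as non-binding.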
# [2] = molecular target: Gal(b1-4)GlcNAc(b1-2)Man(a1-3)[Gal(b1-4)GlcNAc(b1-2)Man(a1-6)]Man(b1-4)GlcNAc(b1-4)[Fuc(a1-6)]GlcNAc
# How it was run: as §1
# [3] = molecular target: Gal(b1-4)GlcNAc(b1-2)Man(a1-3)[Gal(b1-4)GlcNAc(b1-2)Man(a1-6)][Gal(b1-4)GlcNAc(b1-4)]Man(b1-4)GlcNAc(b1-4)[Fuc(a1-6)]GlcNAc
# How it was run: as §1
# [4] = molecular target: Gal(b1-4)GlcNAc(b1-2)Man(a1-3)[Gal(b1-4)GlcNAc(b1-2)Man(a1-6)][GlcNAc(b1-4)]Man(b1-4)GlcNAc(b1-4)[Fuc(a1-6)]GlcNAc
# How it was run: as §1
# [5] = molecular target: Gal(b1-4)GlcNAc(b1-2)Man(a1-3)[GlcNAc(b1-2)Man(a1-6)]Man(b1-4)GlcNAc(b1-4)GlcNAc
# How it was run: as §1
# [6] = molecular target: Gal(b1-4)GlcNAc(b1-2)Man(a1-3)[GlcNAc(b1-4)][Gal(b1-4)GlcNAc(b1-2)Man(a1-6)]Man(b1-4)GlcNAc(b1-4)GlcNAc
# How it was run: as §1
# [7] = molecular target: Gal(b1-4)GlcNAc(b1-2)Man(a1-3)[Man(a1-6)]Man(b1-4)GlcNAc(b1-4)GlcNAc
# How it was run: as §1
# [8] = molecular target: Gal(b1-4)GlcNAc(b1-2)Man(a1-6)Man(b1-4)GlcNAc(b1-4)GlcNAc
# How it was run: as §1
# [9] = molecular target: Gal(b1-4)GlcNAc(b1-2)Man(a1-6)[GlcNAc(b1-2)Man(a1-3)]Man(b1-4)GlcNAc(b1-4)GlcNAc
# How it was run: as §1
# [10] = molecular target: Gal(b1-4)GlcNAc(b1-2)Man(a1-6)[Man(a1-3)]Man(b1-4)GlcNAc(b1-4)GlcNAc
# How it was run: as §1
# [11] = molecular target: Gal(b1-4)GlcNAc(b1-2)[Gal(b1-4)GlcNAc(b1-4)]Man(a1-3)[Gal(b1-4)GlcNAc(b1-2)Man(a1-6)]Man(b1-4)GlcNAc(b1-4)GlcNAc
# How it was run: as §1
# [12] = molecular target: Gal(b1-4)GlcNAc(b1-2)[Gal(b1-4)GlcNAc(b1-4)]Man(a1-3)[Gal(b1-4)GlcNAc(b1-2)[Gal(b1-4)GlcNAc(b1-6)]Man(a1-6)]Man(b1-4)GlcNAc(b1-4)GlcNAc
# How it was run: as §1
# [13] = molecular target: Gal(b1-4)GlcNAc(b1-2)[Gal(b1-4)GlcNAc(b1-4)]Man(a1-3)[GlcNAc(b1-4)][Gal(b1-4)GlcNAc(b1-2)Man(a1-6)]Man(b1-4)GlcNAc(b1-4)GlcNAc
# How it was run: as §1
# [14] = molecular target: Gal(b1-4)GlcNAc(b1-2)[Gal(b1-4)GlcNAc(b1-4)]Man(a1-3)[GlcNAc(b1-4)][Gal(b1-4)GlcNAc(b1-2)[Gal(b1-4)GlcNAc(b1-6)]Man(a1-6)]Man(b1-4)GlcNAc(b1-4)GlcNAc
# How it was run: as §1
# [15] = molecular target: Gal(b1-4)GlcNAc(b1-2)[Gal(b1-4)GlcNAc(b1-6)]Man(a1-6)[Gal(b1-4)GlcNAc(b1-2)Man(a1-3)]Man(b1-4)GlcNAc(b1-4)GlcNAc
# How it was run: as §1
# [16] = molecular target: Gal(b1-4)GlcNAc(b1-2)[Gal(b1-4)GlcNAc(b1-6)]Man(a1-6)[Gal(b1-4)GlcNAc(b1-2)Man(a1-3)]Man(b1-4)GlcNAc(b1-4)[Fuc(a1-6)]GlcNAc
# How it was run: as §1
# [17] = molecular target: Gal(b1-4)GlcNAc(b1-2)[Gal(b1-4)GlcNAc(b1-6)]Man(a1-6)[GlcNAc(b1-4)][Gal(b1-4)GlcNAc(b1-2)Man(a1-3)]Man(b1-4)GlcNAc(b1-4)GlcNAc
# How it was run: as §1
# [18] = molecular target: Gal(b1-4)GlcNAc(b1-2)[Gal(b1-4)GlcNAc(b1-6)]Man(a1-6)[GlcNAc(b1-4)][Gal(b1-4)GlcNAc(b1-2)[Gal(b1-4)GlcNAc(b1-4)]Man(a1-3)]Man(b1-4)GlcNAc(b1-4)[Fuc(a1-6)]GlcNAc
# How it was run: as §1
# [19] = molecular target: Gal(b1-4)GlcNAc(b1-3)Gal(b1-3)GalNAc
# How it was run: as §1
binder,measurement,setting,value
B1,glycan array binding signal (z-score),[1],-0.841
same,glycan array binding signal (z-score),[2],0.14
same,glycan array binding signal (z-score),[3],-0.303
same,glycan array binding signal (z-score),[4],-0.006
same,glycan array binding signal (z-score),[5],-0.326
same,glycan array binding signal (z-score),[6],-0.111
same,glycan array binding signal (z-score),[7],0.02
same,glycan array binding signal (z-score),[8],-0.143
same,glycan array binding signal (z-score),[9],-0.599
same,glycan array binding signal (z-score),[10],-0.978
same,glycan array binding signal (z-score),[11],-0.666
same,glycan array binding signal (z-score),[12],-0.781
same,glycan array binding signal (z-score),[13],-0.759
same,glycan array binding signal (z-score),[14],0.061
same,glycan array binding signal (z-score),[15],0.291
same,glycan array binding signal (z-score),[16],0.877
same,glycan array binding signal (z-score),[17],-0.559
same,glycan array binding signal (z-score),[18],-0.441
same,glycan array binding signal (z-score),[19],-0.364

# Part of the list above, tab-delimited:
binder	measurement	setting	value
B1	glycan array binding signal (z-score)	[8]	-0.143
same	glycan array binding signal (z-score)	[9]	-0.599
